The values that follow come from article PMC10121563 (2023).

These are yes or no findings as the source states them, for the method shown. Some binding calls cover weakened binding; strength is not graded here. Where a sequence is shown, tags or fusion partners need not be part of it.

The target in this assay is T1, GST::OsABI5 fusion protein (rice (Oryza sativa)) (UniProt Q8RZ35).
T1 sequence: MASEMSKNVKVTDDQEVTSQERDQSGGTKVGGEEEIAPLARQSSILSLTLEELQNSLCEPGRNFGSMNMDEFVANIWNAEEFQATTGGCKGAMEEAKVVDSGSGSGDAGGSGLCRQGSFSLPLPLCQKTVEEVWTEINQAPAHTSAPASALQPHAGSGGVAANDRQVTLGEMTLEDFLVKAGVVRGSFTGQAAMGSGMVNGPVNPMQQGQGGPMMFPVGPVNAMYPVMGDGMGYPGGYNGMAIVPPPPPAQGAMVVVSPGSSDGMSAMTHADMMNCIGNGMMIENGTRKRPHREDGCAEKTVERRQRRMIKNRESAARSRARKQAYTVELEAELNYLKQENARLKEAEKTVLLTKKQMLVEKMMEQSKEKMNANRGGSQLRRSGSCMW
Put plainly: pull-down; 2 μg MBP::OsJAZ6 or MBP::OsJAZ7 prey incubated with 2 μg immobilized GST, GST::OsABI3 or GST::OsABI5 bait; washed three times; immunoblot with anti-GST and anti-MBP; both purified. A general note: In western blotting, separated proteins are transferred to a membrane and probed.

B1: MBP::OsJAZ6 fusion protein (protein)
chain: MASAKSGERGSSSFAMACSLLSRYVRQNGAAAGELGLGIRGEADANKGKETMELFPQNSGFGSEAAAVKETPDAREQEKRQLTIFYGGKVLVFDDFPAEKAKDLMQMASKSSSTAQNCVLLPSSATATVADNTKVSAVPAPASALPVAQANAPKPVRPNAADLPQARKASLHRFLEKRKDRLQAKAPYQGSPSDASPVKKELQESQPWLGLGPQVAAPDLSLRQESSQ
In the case of B1, the binding result was “binds”.

B2: MBP::OsJAZ7 fusion protein (protein)
chain: MAASARPVGVGGERATSFAMACSLLSRYVRQNGAAAAELGLGIRGEGEAPRAAPATMSLLPGEAERKKETMELFPQSAGFGQQDAITADSAADAREQEPEKRQLTIFYGGKVLVFNDFPADKAKGLMQLASKGSPVAPQNAAAPAPAAVTDNTKAPMAVPAPVSSLPTAQADAQKPARANASDMPIARKASLHRFLEKRKDRLNAKTPYQASPSDATPVKKEPESQPWLGLGPNAVVKPIERGQ
Consider B2, for which the binding result is “binds”.
